Laboratory results reported in the supplement of paper PMC10727501.
This is one part of the list. This data set is noisy: repeats of one test often differ as much as different tests do.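 Free-swimming zebrafish larvae were assessed for O-bend response probability to dark flashes (naive: first five; training: remaining flashes across four 60-flash blocks; test: later 60-flash block) and for OMR turning toward alternating leftward/rightward LED motion. Six treated larvae were compared against sixty 0.1% DMSO controls; hits required |SSMD|≥2.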

Tests used:
Details in all cases: 10 µM; pre-incubation: 30-90 min
[1] = system: Danio rerio larvae (5 dpf, TLF); assay: OMR-Perf (SSMD vs DMSO vehicle); higher = higher than vehicle (e.g. higher dark-flash O-bend response probability, or better optomotor performance)
[2] = system: Danio rerio larvae (5 dpf, TLF); assay: Prob-Test (SSMD vs DMSO vehicle); higher = higher than vehicle (e.g. higher dark-flash O-bend response probability, or better optomotor performance)
[3] = system: Danio rerio larvae (5 dpf, TLF); assay: Prob-Naive (SSMD vs DMSO vehicle); higher = higher than vehicle (e.g. higher dark-flash O-bend response probability, or better optomotor performance)
[4] = system: Danio rerio larvae (5 dpf, TLF); assay: Prob-Train (SSMD vs DMSO vehicle); higher = higher than vehicle (e.g. higher dark-flash O-bend response probability, or better optomotor performance)

Row | SMILES | OMR-Perf [1] | Prob-Test [2] | Prob-Naive [3] | Prob-Train [4]
1 | COC(=O)C1=CO[C@H](O)[C@@H]2C(CO)=CC[C@H]12 [Genipin] | -0.439 | 0.103 | 0.516 | -0.0213
2 | C[C@H](CCC(=O)O)[C@@H]1CC[C@H]2[C@@H]3C[C@H](O)[C@@H]4C[C@H](O)CC[C@]4(C)[C@@H]3CC[C@@]21C [Hyodeoxycholic acid (HDCA)] | -0.244 | 0.12 | 0.375 | 0.313
3 | Cl.NC(=O)c1cnc(N[C@@H]2CCCC[C@H]2N)nc1Nc1cccc(-n2nccn2)c1 | 0.319 | -0.0226 | 0.00516 | -0.14
4 | CC(=O)OCC[N+](C)(C)C.[Cl-] [Acetylcholine Chloride] | -0.338 | 0.344 | 0.357 | 0.275
5 | CC[C@@H](C)Nc1cc(C(=O)NC2CC3CCC(C2)N3c2ccc(C(=O)C3CC3)cn2)c(C)cc1C(N)=O (stereo partly drawn) | -0.292 | 0.26 | -0.261 | 0.667
6 | NS(=O)(=O)c1cc2c(cc1Cl)NC(C(Cl)Cl)NS2(=O)=O (stereo not drawn) [Trichlormethiazide] | 0.364 | 0.206 | -0.152 | -0.125
7 | Cn1c(Nc2ccc(C(F)(F)F)cc2)nc2cc(Oc3ccnc(-c4ncc(C(F)(F)F)[nH]4)c3)ccc21 | -0.495 | -0.211 | 0.313 | -0.106
8 | CN(C[C@@H]1COCCO1)S(=O)(=O)Nc1ccc2ccc3ncc(-c4cnn(C)c4)cc3c(=O)c2c1 | 0.256 | -0.273 | 0.319 | 0.124
9 | Cn1c(CNc2ccc(C(=N)N)cc2)nc2cc(C(=O)N(CCC(=O)O)c3ccccn3)ccc21 [BIBR 953 (Dabigatran etexilate, Pradaxa)] | -0.36 | -0.11 | -0.301 | -0.473
10 | CC(=O)Nc1ncc([N+](=O)[O-])s1 [Nithiamide] | 0.336 | -0.427 | 0.134 | -0.421
11 | CCOC(=O)OC(C)OC1=C(C(=O)Nc2ccccn2)N(C)S(=O)(=O)c2ccccc21 (stereo not drawn) [Ampiroxicam] | -0.425 | -0.195 | -0.106 | -0.352
12 | O=C1NC(=O)/C(=C/c2ccc3nccc(-c4ccncc4)c3c2)S1 | -0.351 | 0.0184 | -0.102 | 0.0829
13 | Cn1cnc2c(F)c(Nc3ccc(Br)cc3Cl)c(C(=O)NOCCO)cc21 [Selumetinib (AZD6244)] | -0.0468 | 0.14 | 0.125 | 0.00484
14 | CCCCCCOC(=O)/N=C(/N)c1ccc(NCc2nc3cc(C(=O)N(CCC(=O)OCC)c4ccccn4)ccc3n2C)cc1 [Dabigatran Etexilate] | -0.135 | -0.16 | 0.464 | -0.0838
15 | COc1cc2ncnc(Oc3cccc(NC(=O)Nc4cc(C(C)(C)C(F)(F)F)on4)c3)c2cc1OC | 0.119 | -0.468 | -0.193 | -0.0417
16 | COc1ccc2cc1Oc1ccc(cc1)C[C@@H]1c3c(cc4c(c3Oc3cc5c(cc3OC)CCN(C)[C@H]5C2)OCO4)CCN1C [Cepharanthine] | -0.604 | 0.0509 | -0.0588 | -1.17
17 | C[C@@H](N)[C@H]1CC[C@H](C(=O)Nc2ccncc2)CC1.Cl.Cl | 0.0236 | 0.0203 | -0.141 | -0.394
18 | CC12CC3CC(C)(C1)CC(N)(C3)C2.Cl [Memantine HCl] | -0.143 | 0.0498 | 0.357 | 0.149
19 | CC1(C)S[C@@H]2[C@H](NC(=O)C(C(=O)[O-])c3ccccc3)C(=O)N2[C@H]1C(=O)[O-].[Na+].[Na+] (stereo partly drawn) [Carbenicillin disodium] | -0.331 | -0.0766 | 0 | -0.24
20 | CN1CCN(CCOc2cc(OC3CCOCC3)c3c(Nc4c(Cl)ccc5c4OCO5)ncnc3c2)CC1 [Saracatinib (AZD0530)] | 0.26 | -0.244 | 0.35 | 0.0168
21 | COc1cc(Nc2ncc(F)c(Nc3ccc4c(n3)N(COP(=O)(O)O)C(=O)C(C)(C)O4)n2)cc(OC)c1OC [Fostamatinib (R788)] | -0.397 | -0.216 | 0.285 | -0.215
22 | CNC(=O)c1ccccc1Nc1nc(Nc2ccc(N3CCOCC3)cc2OC)ncc1Cl | 1.21 | -1.83 | -0.412 | -1.29

2 compounds drawn at random from the list so far:
Row | SMILES | OMR-Perf [1] | Prob-Test [2] | Prob-Naive [3] | Prob-Train [4]
6 | NS(=O)(=O)c1cc2c(cc1Cl)NC(C(Cl)Cl)NS2(=O)=O (stereo not drawn) [Trichlormethiazide] | 0.364 | 0.206 | -0.152 | -0.125
1 | COC(=O)C1=CO[C@H](O)[C@@H]2C(CO)=CC[C@H]12 [Genipin] | -0.439 | 0.103 | 0.516 | -0.0213
